Experimental data from article doi:10.1101/2025.03.06.641895.

T1: Ataxin-2-like (ATXN2L) (mouse (endogenous in MEF)) (UniProt Q7TQH0)
T1 sequence: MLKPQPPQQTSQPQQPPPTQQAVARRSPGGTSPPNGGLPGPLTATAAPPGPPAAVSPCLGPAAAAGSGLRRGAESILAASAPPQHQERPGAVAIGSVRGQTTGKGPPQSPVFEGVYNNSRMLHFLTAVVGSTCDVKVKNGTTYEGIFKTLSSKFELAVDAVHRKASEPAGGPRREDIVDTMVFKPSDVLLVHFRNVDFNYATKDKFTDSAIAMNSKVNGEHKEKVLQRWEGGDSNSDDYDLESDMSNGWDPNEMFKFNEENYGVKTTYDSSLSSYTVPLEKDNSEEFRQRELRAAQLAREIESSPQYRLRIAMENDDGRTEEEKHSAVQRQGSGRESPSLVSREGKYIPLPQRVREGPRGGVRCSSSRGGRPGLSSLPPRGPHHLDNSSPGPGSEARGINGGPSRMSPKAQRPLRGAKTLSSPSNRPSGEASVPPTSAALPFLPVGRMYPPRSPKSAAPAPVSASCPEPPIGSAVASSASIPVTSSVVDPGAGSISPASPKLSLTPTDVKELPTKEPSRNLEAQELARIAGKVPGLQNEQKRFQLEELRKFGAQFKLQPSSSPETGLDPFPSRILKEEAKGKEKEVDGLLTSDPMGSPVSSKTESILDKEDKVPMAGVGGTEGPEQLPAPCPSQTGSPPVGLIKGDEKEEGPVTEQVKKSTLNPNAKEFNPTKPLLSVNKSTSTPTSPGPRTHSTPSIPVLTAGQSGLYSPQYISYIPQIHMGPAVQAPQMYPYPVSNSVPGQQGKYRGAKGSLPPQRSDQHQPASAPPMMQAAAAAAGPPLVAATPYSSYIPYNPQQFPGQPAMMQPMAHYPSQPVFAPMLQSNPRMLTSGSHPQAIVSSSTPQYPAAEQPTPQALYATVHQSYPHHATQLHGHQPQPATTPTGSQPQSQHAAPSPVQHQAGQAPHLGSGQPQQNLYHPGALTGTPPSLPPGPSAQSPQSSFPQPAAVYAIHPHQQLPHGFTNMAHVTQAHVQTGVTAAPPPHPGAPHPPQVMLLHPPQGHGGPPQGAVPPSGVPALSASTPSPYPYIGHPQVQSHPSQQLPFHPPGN


What follows are binders tested against T1, Ataxin-2-like (ATXN2L) (mouse (endogenous in MEF)) (assay: affinity purification with mass spectrometry).

Binder | binding
MCRIP2 (protein, UniProt Q9CQB2 1-160) MYTITKGPSKLVAQRRTGPTQQQVESRLGELLKCRQPVPPTALPAHLQPSAQTQGPWPLASSGPRLVFNRVNGRRPLTTSPSLEGTQETYTVAHEENVRFVSEAWQQVERQLDGGPADESGPRPVQYVESTPDPRLQNFVPIDLDEWWAQQFLAKITNCS | binds
NUFIP2 (Nuclear Fragile X Mental Retardation Protein Interacting Protein 2) (protein, UniProt Q5F2E7 1-692) MEEKPGQPQPQHHHSHHHPHHHPQQQQQQQSHHHHHYYFYNHSHNHHHHHHHQQPHQYLQHGAEGSPKAQPKPLKHEQKHTLQQHQETPKKKTGYGEINGNAGEREISLKSLSSDEATNPISRVLNGNQQVVETSLKQTVKTSTFGKAGIKTKNFIQKNSMDKKNGKSYENKSGETQAVDKTDTIAIPNGVITSSSGYITNGYMSKGADNDGSGSESGYTTPKKRKARRNSAKGCENLNLVQDKIMQETSVPALKQGLETLKPDYSEQKGMRVDGSKPIWKYETGPGGTSRGKPAMGDVLRKSSDIKPGLSSKKFDDRPKGKHASAAASKEDSWTLFKPPPVFPVDNSSAKIVPKISYASKVKENLNKTVQNSSVSPSSSSSSSSTGETQTQSSSRLSQVPMSALKSVTSASFSNGPVLAGTDGSVYPSGGQPLLTTAANTLTPISTGTDSVLQDMSLASAAVEQIKSSLFIYPSNMQTVLLSAQVDLPSQTDQQNLGDIFQNQWGLSFINEPSAGPETVIGKSSDHKVMEVTFQGEYPATLVSQGAEIIPSGTEHPVFPKAYELEKRTSPQVLGHILKPGTTESGALSLDPSHIGDLQKADTSSQGALVFLSKDYEIENQNPLASPTNTLLGSAKEQRYQRGLERNDSWGSFDLRAAIVYHTKEMESIWNLQKQDPKRIITYNEAMDSPDQ | binds
PRDX1 (Peroxiredoxin 1) (protein, UniProt P35700 1-199) MSSGNAKIGYPAPNFKATAVMPDGQFKDISLSEYKGKYVVFFFYPLDFTFVCPTEIIAFSDRADEFKKLNCQVIGASVDSHFCHLAWINTPKKQGGLGPMNIPLISDPKRTIAQDYGVLKADEGISFRGLFIIDDKGILRQITINDLPVGRSVDEIIRLVQAFQFTDKHGEVCPAGWKPGSDTIKPDVNKSKEYFSKQK | binds
FYB (protein, UniProt O35601 1-819) MAKFNTGSNPTEEAATSSRPFKVAGQSSPSGIQSRKNLFDNQGNASPPAGPSSMPKFGTTKPPLAAKPTYEEKPEKEPKPPFLKPTGGSPRFGTQPNSVSRDPEVKVGFLKPVSPKPTSLTKEDSKPVVLRPPGNKLHNLNQESDLKTPGPKPGPAPPVPENELKPGFSKVAGAKSKFMPAAQDTDSKPRFPRHTFGQKPSLSTEDSQEENTSKNVPVQKGSPVQLGAKSKGAPFKPPKEDPEDKDHGAPSSPFPGVVLKPAASRGSPGLSKNFEEKKEDRKTDLAKNIFLNKLNQEEPARFPKAPSKLTAGTPWGQSQEKEGDKNSATPKQKALPPLSVLGPPPPKPNRPPNVDLTRFRKADSANSATKSQTPYSTTSLPPPPPTHPASQPPLPASHPAHPPVPSLPPRNIKPPLDLKHPINDENQDGVMHSDGTGNLEEEQESEGETYEDIDSSKERDKKREKEEKKRLELERKEQKEREKKEQELKKKFKLTGPIQVIHHAKACCDVKGGKNELSFKQGEDIEIIRITDNPEGKWLGRTARGSYGYIKTTAVEIDYDSLKRKKNSLNAVPPRLVEDDQDVYDDVAEQDAPNSHGQSGSGGMFPPPPTDDEIYDGIEEEDDDDGSVPQVDEKTNAWSWGILKMLKGKDDRKKSIREKPKVSESDNNEGSSLPSQHKQLDVGEEVYDDVDASDFPPPPAEMSQGMSVGRAKTEEKDPKKLKKQEKEEKDLRKKFKYDGEIRVLYSTKVASSLTSKKWGARDLQIKPGESLEVIQSTDDTKVLCRNEEGKYGYVLRSYLVDNDGEIYDDIADGCIYDND | binds
GOLGA3 (protein, UniProt P55937 1-1487) MDGASAKQDGLWESKSSSDVSSCPEASLETVGSLARLPDQQDTAQDASVEVNRGFKEEGSPDRSSQVAICQNGQIPDLQLSLDPTTSPVGPDASTGVDGFHDNLRNSQGTSAEGSVRKEALQSLRLSLPMQETQLCSTASSLPLEKEEQVRLQARKRLEEQLMQYRVKRHRERSSQPATKMKLFSTLDPELMLNPENLPRASTVAVTKEYSFLRTSVPRGPKVGSLGLLAHSKEKKNSKSSKIRSLADYRTEDPSDSGGLGSTADAVGSSLKQSRSSTSVVSEVSPSSETDNRVESASMTGDSVSEADGNESDSSSHSSLSARGACGVLGNVGMPGTAYMVDGQEISAEALGQFPSIKDVLQAAAAQHQDQNQEANGEVRSRRDSICSSVSMESSLAEPQDELLQILKDKRRLEGQVEALSLEASQALQEKAELQAQLAALSTRLQAQVEHSHSSQQKQDSLSSEVDTLKQSCWDLGRAMTDLQSMLEAKNASLASSNNDLQVAEEQYQRLMAKVEDMQRNILSKDNTVHDLRQQMTALQSQLQQVQLERTTLTSKLQASQAEITSLQHARQWYQQQLTLAQEARVRLQGEMAHIQVGQMTQAGLLEHLKLENVSLSHQLTETQHRSIKEKERIAVQLQSIEADMLDQEAAFVQIREAKTMVEEDLQRRLEEFEGEREQLQKVADAAASLEQQLEQVKLTLFQRDQQLAALQQEHLDVIKQLTSTQEALQAKGQSLDDLHTRYDELQARLEELQREADSREDAIHFLQNEKIVLEVALQSAKSDKEELDRGARRLEEDTEETSGLLEQLRQDLAVKSNQVEHLQQETATLRKQMQKVKEQFVQQKVMVEAYRRDATSKDQLINELKATKKRLDSEMKELRQELIKLQGEKKTVEVEHSRLQKDMSLVHQQMAELEGHLQSVQKERDEMEIHLQSLKFDKEQMIALTEANETLKKQIEELQQEAKKAITEQKQKMKRLGSDLTSAQKEMKTKHKAYENAVSILSRRLQEALASKEATDAELNQLRAQSTGGSSDPVLHEKIRALEVELQNVGQSKILLEKELQEVITMTSQELEESREKVLELEDELQESRGFRRKIKRLEESNKKLALELEHERGKLTGLGQSNAALREHNSILETALAKREADLVQLNLQVQAVLQRKEEEDRQMKQLVQALQVSLEKEKMEVNSLKEQMAAARIEAGHNRRHFKAATLELSEVKKELQAKEHLVQTLQAEVDELQIQDGKHSQEIAQFQTELAEARTQLQLLQKKLDEQMSQQPTGSQEMEDLKWELDQKEREIQSLKQQLDLTEQQGKKELEGTQQTLQTIKSELEMVQEDLSETQKDKFMLQAKVSELKNNMKTLLQQNQQLKLDLRRGAAKKKEPKGESNSSSPATPIKIPDCPVPASLLEELLRPPPAVSKEPLKNLNNCLQQLKQEMDSLQRQMEEHTITVHESLSSWAQVEAAPAEHAHPRGDTKLHNQNSVPRDGLGQ | binds
RBMS1 (protein, UniProt Q91W59 1-403) MGKVWKQQMYPQYATYYYPQYLQAKQSLVPAHPMAPPSPSTTSSNNNSSSSSNSGWDQLSKTNLYIRGLPPNTTDQDLVKLCQPYGKIVSTKAILDKATNKCKGYGFVDFDSPAAAQKAVSALKANGVQAQMAKQQEQDPTNLYISNLPLSMDEQELENMLKPFGQVISTRVLRDSSGASRGVGFARMESTEKCEAVIGHFNGKFIKTPPGVSAPTEPLLCKFADGGQKKRQNPNKYIPNGRPWPRDGEAGMTLTYDPTTAALHNGFYPSPYSIATNRMITQTSLTPYIASPVSAYQVQSPSWMQPQPYILQHPGAVLTPSMEHTMSLQPASMISPLAQQMSHLSLGSTGTYMPATSAMQGAYLPQYTHMQTAAVPVEEASGQQQVAVETSNDHSPYTFPPNK | binds

Results are given in words; binding and its absence hold for the method and conditions named. In cells and extracts the contact can be indirect. A yes stands for co-enrichment or nearness to the bait. Other partners may have been found.
